{"source": "PubChem BioAssay AID1259330, Drosophila RNAi Screening Center, 2017", "purpose": "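Water vehicle control for the manganese and zinc toxicity knock-down screens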", "cells": "Drosophila S2R+ cells", "reagents": "long dsRNA against Drosophila genes", "time to read-out": "5 days (4 days of knock-down, then 1 day after water)", "challenge": "water added as vehicle control after 4 days, 1 day before read-out; no manganese or zinc", "read-out": "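z-scores of luciferase-based total ATP, each pair of replicate plates averaged; read 1 day after water was added following 4 days of knock-down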", "direction": "ATP z-score, pair 1 and ATP z-score, pair 2: higher = more total ATP than other wells", "active means": "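Active means the ATP z-score of replicate pair 1 lies beyond 1.5 in either direction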", "note": "This is an unselected part of 95 reagents tested. Over the whole deposit, 6 (6.3%) got an active call. 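Calls rest on pair 1 alone and pair 2 does not reproduce them; printed active calls all sit near 1.5 or higher.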 Entries without a mark were called inactive. Not stated in the record: the amount of reagent."}
{"gene": "Pop2", "amplicon": "DRSC10537", "ATP z-score, pair 1": -0.881, "ATP z-score, pair 2": 1.19}
{"gene": "Pop2", "amplicon": "DRSC32413", "ATP z-score, pair 1": 0.385, "ATP z-score, pair 2": -0.156}
{"gene": "Sod2", "amplicon": "DRSC07554", "ATP z-score, pair 1": 0.99, "ATP z-score, pair 2": 1.21}
{"gene": "Sod2", "amplicon": "DRSC27050", "ATP z-score, pair 1": -0.853, "ATP z-score, pair 2": -1.03}
{"gene": "ZnT63C", "amplicon": "DRSC23528", "ATP z-score, pair 1": -0.571, "ATP z-score, pair 2": 1.04}
{"gene": "ZnT63C", "amplicon": "DRSC37698", "ATP z-score, pair 1": 1.39, "ATP z-score, pair 2": 0.691}
{"gene": "Mvl", "amplicon": "DRSC16752", "ATP z-score, pair 1": 0.309, "ATP z-score, pair 2": 1.04}
{"gene": "Mvl", "amplicon": "DRSC39671", "ATP z-score, pair 1": -0.137, "ATP z-score, pair 2": 0.887}
{"gene": "CG6126", "amplicon": "DRSC15971", "ATP z-score, pair 1": -0.559, "ATP z-score, pair 2": -0.445}
{"gene": "CG6126", "amplicon": "DRSC39462", "ATP z-score, pair 1": -0.387, "ATP z-score, pair 2": -0.411}
{"gene": "Vha44", "amplicon": "DRSC24506", "ATP z-score, pair 1": -0.195, "ATP z-score, pair 2": 0.512}
{"gene": "Vha44", "amplicon": "DRSC32230", "ATP z-score, pair 1": -0.537, "ATP z-score, pair 2": 0.522}
{"gene": "SERCA", "amplicon": "DRSC04600", "ATP z-score, pair 1": -0.258, "ATP z-score, pair 2": -0.848}
{"gene": "SERCA", "amplicon": "DRSC26195", "ATP z-score, pair 1": 0.874, "ATP z-score, pair 2": -0.306}
{"gene": "Sac1", "amplicon": "DRSC34470", "ATP z-score, pair 1": -0.812, "ATP z-score, pair 2": -0.565}
{"gene": "Sac1", "amplicon": "DRSC34471", "ATP z-score, pair 1": -0.341, "ATP z-score, pair 2": 0.719}
{"gene": "Ctr1A", "amplicon": "DRSC40310", "ATP z-score, pair 1": -0.574, "ATP z-score, pair 2": -0.614}
{"gene": "Ctr1A", "amplicon": "DRSC40902", "ATP z-score, pair 1": -0.383, "ATP z-score, pair 2": -0.486}
{"gene": "eEF1gamma", "amplicon": "DRSC23655", "ATP z-score, pair 1": -0.489, "ATP z-score, pair 2": 1.65}
{"gene": "eEF1gamma", "amplicon": "DRSC35716", "ATP z-score, pair 1": 0.618, "ATP z-score, pair 2": -1.12}
{"gene": "CHMP2B", "amplicon": "DRSC10436", "ATP z-score, pair 1": -0.424, "ATP z-score, pair 2": 0.906}
{"gene": "CHMP2B", "amplicon": "DRSC26221", "ATP z-score, pair 1": -1.18, "ATP z-score, pair 2": -0.815}
{"gene": "Catsup", "amplicon": "DRSC03288", "ATP z-score, pair 1": -0.0742, "ATP z-score, pair 2": 0.605}
{"gene": "Catsup", "amplicon": "DRSC25727", "ATP z-score, pair 1": 1.43, "ATP z-score, pair 2": -0.525}
{"gene": "Catsup", "amplicon": "DRSC40427", "ATP z-score, pair 1": -0.396, "ATP z-score, pair 2": -0.418}
{"gene": "p38b", "amplicon": "DRSC37327", "ATP z-score, pair 1": 0.266, "ATP z-score, pair 2": 1.07}
{"gene": "Zip102B", "amplicon": "DRSC17155", "ATP z-score, pair 1": 0.679, "ATP z-score, pair 2": -0.53}
{"gene": "Zip102B", "amplicon": "DRSC39247", "ATP z-score, pair 1": -0.546, "ATP z-score, pair 2": 1.21}

Part of the list above, limited to “ATP z-score, pair 1”.
Zip102B [DRSC17155]	0.679
Zip102B [DRSC39247]	-0.546
